In experiment [1] the target is HA tagged-AP2m (in HEK293) (UniProt Q96CW1). The experiment in a line: co-IP; HEK293 cell lysates expressing AP2m-HA and FLAG-praja2; immunoprecipitation with anti-HA antibody or control IgG; lysis in 0.5% NP40 buffer (50 mM Tris-HCl pH 7.4, 0.15 M NaCl, 100 mM EDTA).
In another experiment the target is AP2m-HA (in HeLa) (UniProt Q96CW1). The experiment in a line: co-IP; HeLa cells transfected with AP2m-HA, starved overnight, treated with EGF for the indicated time points; lysates immunoprecipitated with anti-HA antibody, blotted with anti-praja2 (endogenous praja2) and anti-HA.

Amino acid sequences for entries named in this document (tags omitted).
UniProt Q96CW1: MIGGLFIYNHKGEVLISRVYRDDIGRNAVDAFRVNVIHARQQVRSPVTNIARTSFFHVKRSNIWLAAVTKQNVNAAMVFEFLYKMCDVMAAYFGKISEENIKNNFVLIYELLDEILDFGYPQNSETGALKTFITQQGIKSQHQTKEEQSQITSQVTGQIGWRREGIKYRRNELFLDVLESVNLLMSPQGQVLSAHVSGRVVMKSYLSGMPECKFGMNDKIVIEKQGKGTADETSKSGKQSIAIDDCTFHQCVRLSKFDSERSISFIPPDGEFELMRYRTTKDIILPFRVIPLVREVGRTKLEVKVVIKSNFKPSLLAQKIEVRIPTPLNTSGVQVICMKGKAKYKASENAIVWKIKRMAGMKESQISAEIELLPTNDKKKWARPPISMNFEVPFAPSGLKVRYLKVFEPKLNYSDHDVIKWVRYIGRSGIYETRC

Results are given in words; binding and its absence hold for the method and conditions named. In cells and extracts the contact can be indirect. Some results given as binding are weak or reduced against the parent protein; the word gives no strength. For some assays here: Where a sequence is shown, tags or fusion partners need not be part of it.

B1: FLAG tagged-praja2 (wild type) (enzyme, UniProt O43164 1-708)
chain: MSQYTEKEPAAMDQESGKAVWPKPAGGYQTITGRRYGRRHAYVSFKPCMTRHERSLGRAGDDYEVLELDDVPKENSSGSSPLDQVDSSLPSEPIFEKSETEIPTCGSALNQTTESSQSFVAVHHSEEGRDTLGSSTNLHNHSEGEYIPGACSASSVQNGIALVHTDSYDPDGKHGEDNDHLQLSAEVVEGSRYQESLGNTVFELENREAEAYTGLSPPVPSFNCEVRDEFEELDSVPLVKSSAGDTEFVHQNSQEIQRSSQDEMVSTKQQNNTSQERQTEHSPEDAACGPGHICSEQNTNDREKNHGSSPEQVVRPKVRKLISSSQVDQETGFNRHEAKQRSVQRWREALEVEESGSDDLLIKCEEYDGEHDCMFLDPPYSRVITQRETENNQMTSESGATAGRQEVDNTFWNGCGDYYQLYDKDEDSSECSDGEWSASLPHRFSGTEKDQSSSDESWETLPGKDENEPELQSDSSGPEEENQELSLQEGEQTSLEEGEIPWLQYNEVNESSSDEGNEPANEFAQPAFMLDGNNNLEDDSSVSEDLDVDWSLFDGFADGLGVAEAISYVDPQFLTYMALEERLAQAMETALAHLESLAVDVEVANPPASKESIDGLPETLVLEDHTAIGQEQCCPICCSEYIKDDIATELPCHHFFHKPCVSIWLQKSGTCPVCRRHFPPAVIEASAAPSSEPDPDAPPSNDSIAEAP
On to B1, for which the binding result in experiment [1] is listed as “binds”.

B2: praja2, endogenous in HeLa cells (enzyme, UniProt O43164 1-708)
chain: MSQYTEKEPAAMDQESGKAVWPKPAGGYQTITGRRYGRRHAYVSFKPCMTRHERSLGRAGDDYEVLELDDVPKENSSGSSPLDQVDSSLPSEPIFEKSETEIPTCGSALNQTTESSQSFVAVHHSEEGRDTLGSSTNLHNHSEGEYIPGACSASSVQNGIALVHTDSYDPDGKHGEDNDHLQLSAEVVEGSRYQESLGNTVFELENREAEAYTGLSPPVPSFNCEVRDEFEELDSVPLVKSSAGDTEFVHQNSQEIQRSSQDEMVSTKQQNNTSQERQTEHSPEDAACGPGHICSEQNTNDREKNHGSSPEQVVRPKVRKLISSSQVDQETGFNRHEAKQRSVQRWREALEVEESGSDDLLIKCEEYDGEHDCMFLDPPYSRVITQRETENNQMTSESGATAGRQEVDNTFWNGCGDYYQLYDKDEDSSECSDGEWSASLPHRFSGTEKDQSSSDESWETLPGKDENEPELQSDSSGPEEENQELSLQEGEQTSLEEGEIPWLQYNEVNESSSDEGNEPANEFAQPAFMLDGNNNLEDDSSVSEDLDVDWSLFDGFADGLGVAEAISYVDPQFLTYMALEERLAQAMETALAHLESLAVDVEVANPPASKESIDGLPETLVLEDHTAIGQEQCCPICCSEYIKDDIATELPCHHFFHKPCVSIWLQKSGTCPVCRRHFPPAVIEASAAPSSEPDPDAPPSNDSIAEAP
For the molecule B2, the binding entry with AP2m-HA (in HeLa) is given as “binds”.

The values above are taken from paper PMC10879500.
